{"source": "patent US20210196711A1", "about": "“LYSINE-SPECIFIC HISTONE DEMETHYLASE AS A NOVEL THERAPEUTIC TARGET IN MYELOPROLIFERATIVE NEOPLASMS” (Imago Biosciences, Inc., priority 2015, published 2021)", "origin": "cited, not measured here", "details": "MF/PV patients; cited from earlier work", "note": "At least one structure is not confirmed: it was looked up by name or label, or the drawing left a doubt.", "data": [{"molecule": "N#CC[C@H](C1CCCC1)n1cc(-c2ncnc3[nH]ccc23)cn1", "note": "[Ruxolitinib, ruxolitinib]", "values": [{"measurement": "patients with spleen size or volume reduced by 35%", "value": "approximately 50%"}]}]}
